# PubChem BioAssay AID686943 | Drosophila RNAi Screening Center | 2013
# Assay: 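Knockdowns that increase or decrease active ERK after insulin receptor stimulation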 (primary screen)
# System: Drosophila S2R+ haemocyte-like cells expressing YFP-tagged ERK (Rolled)
# Reagents: long dsRNA against Drosophila genes
# Conditions: insulin stimulation versus unstimulated cells; dose and duration not given
# Read-out: 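Per-plate z-scores of phospho-ERK immunostaining normalised to YFP-tagged ERK, measured with and without insulin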
# Scale: replicate 1, z-score of dpERK with insulin and replicate 2, z-score of dpERK with insulin: higher = more active ERK per ERK-YFP after insulin; replicate 1, z-score of dpERK under basal conditions: higher = more basal active ERK per ERK-YFP; replicate 1, z-score of ERK-YFP with insulin: higher = more YFP-tagged ERK signal
# In all, the deposit lists about 23,000 reagents; this is a random part of those that have a named target and a result. 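Extra replicates exist only for a retested subset of genes; insulin dose and duration not given; both raised and lowered dpERK matter.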 A plus sign joins genes that one reagent is predicted to hit. Not stated in the record: the amount of reagent, the time to read-out.
gene,DRSC id,"replicate 1, z-score of dpERK with insulin","replicate 2, z-score of dpERK with insulin","replicate 1, z-score of dpERK under basal conditions","replicate 1, z-score of ERK-YFP with insulin"
Zip42C.1 (Zinc/iron regulated transporter-related protein 42C.1),DRSC05003,1.07,0.55,0.06,-0.02
Atg5 (Autophagy-related 5),DRSC18112,0.22,0.22,-0.24,-0.02
CG15260,DRSC01977,0.11,0.18,1.4,-0.62
tous (testes of unusual size),DRSC04464,0.99,0.9,-0.36,-0.2
CG14570,DRSC11731,0.21,-0.61,0.65,-0.29
Targ (Tarag),DRSC06206,-0.9,-0.63,0.03,0.15
CG8475,DRSC03091,0.33,-0.32,-0.19,-0.74
Delta,DRSC16648,5.63,1.16,0.76,-0.31
CG17385,DRSC06664,1.57,0.31,0.18,-0.99
Pgant4 (Polypeptide N-Acetylgalactosaminyltransferase 4),DRSC00717,0.71,1.3,1.13,0.18
GstZ2 (Glutathione S transferase Z2),DRSC16479,0.33,0.44,0.07,-0.38
CG15198,DRSC19645,0.15,0.46,1.18,0.19
pit (pitchoune),DRSC17025,0.47,0.14,-0.46,-0.76
pit (pitchoune),DRSC22798,0.04,0.81,2.79,1
TwdlC (TweedleC),DRSC14749,0.98,-0.05,0.87,0.06
ana3 (anastral spindle 3),DRSC06289,-0.18,0.46,-0.51,-0.05
drk (downstream of receptor kinase),DRSC07606,-4.9,-4.4,-2.56,-1.33
CG6978,DRSC18409,-0.83,0.88,-1.11,0.34
dup (double parked),DRSC07088,-4.6,-3.21,-2.95,-6.05
CG10834,DRSC03693,0.22,-0.25,-1.28,0.05
stg (string),DRSC17071,-1.3,-1.65,-0.33,-1.71
CG10505,DRSC04075,0.28,-0.29,1.43,0.84
betaggt-I (beta subunit of type I geranylgeranyl transferase),DRSC03494,0.38,0.14,-1.02,0.1
Su(z)3 (retired record),DRSC07558,-4.36,-3.18,-4.64,-5.51
CG34454,DRSC07864,-0.08,-0.21,0.85,0.68
CG1239,DRSC12204,-0.16,0.4,-0.1,-0.07
Tailor,DRSC12526,0.81,-0.01,-0.84,0.07
CG10194,DRSC02025,0.15,0.31,0.07,-0.06
CG17764,DRSC18135,-0.24,-0.03,-0.1,0.04
CG14441,DRSC17934,-1.98,-2.48,-0.7,0.63
CG13288,DRSC09962,0.94,-0.89,-0.01,0
CG33474,DRSC05218,0.1,0.51,-0.15,-0.75
CG5011,DRSC00674,0.94,0.49,0.16,-0.94
CG10799,DRSC06002,-0.08,-1.08,-0.4,0.74
CG43367 + asRNA:CR32252,DRSC21715,-0.27,0.24,0.67,1.58
CG14420,DRSC17917,2.5,2.41,0.66,-2.88
TwdlB (TweedleB),DRSC16050,0.52,-1.45,1.28,1.21
CG33060,DRSC09939,1.1,0.71,-0.95,-0.36
s-cup (stanley-cup),DRSC06277,1.27,0.03,-0.08,-1.26
s-cup (stanley-cup),DRSC06278,0.4,0.16,0.14,-0.99
dind (diamond),DRSC16294,0.39,-0.02,0.18,1.08
CAH1 + Adat1,DRSC02009,-0.19,-0.51,0.68,0.83
CG4882,DRSC04495,-0.07,0.3,-0.35,0.78
fws (four way stop),DRSC02969,-0.06,-0.29,1.88,0.28
CG34309,DRSC14838,0.23,0.34,1.02,-0.15
CG32640 + CG32641,DRSC22885,-2.93,0.86,0.11,-0.5
CG17361,DRSC10266,-1.64,-1.76,-0.88,0.86
CG6041,DRSC18396,-0.19,-0.64,0.32,-0.07
CG3088,DRSC10352,-0.22,0.1,0.42,0.1
EloA (Elongin A),DRSC16109,0.69,0.82,0.14,0.57
CG42755 (retired record),DRSC09105,0.55,0.3,-0.56,0.09
CG42755 (retired record),DRSC09106,0.25,0.35,-0.09,0.32
DIP-zeta (Dpr-interacting protein zeta),DRSC02203,-0.11,0.13,-0.57,-0.12
DIP-zeta (Dpr-interacting protein zeta),DRSC02204,0.3,-0.2,-0.5,-0.3
DIP-zeta (Dpr-interacting protein zeta),DRSC02205,0.16,-0.21,-0.57,0.95
CG10307,DRSC04057,1.19,0.57,2.06,0.37
CG17110,DRSC15173,-0.4,0.7,0.3,0.35
sad (shadow),DRSC16630,-0.12,0.15,-0.68,0.27
Slc45-1,DRSC10427,0.36,0.58,-0.51,1.13
ix (intersex),DRSC06325,-0.24,0.42,-1.56,0.15
LanB1,DRSC03360,0.2,0.39,0.06,-0.03
CG17751,DRSC15261,1.51,-0.19,-0.55,0.27
CG17751,DRSC22837,0.32,-0.18,-0.77,1.33
cactin,DRSC20576,2.32,1.56,0.54,-0.62
Hpr1,DRSC12296,1.07,0.38,2.52,-3.49
Ost48 (Oligosaccharyltransferase 48kD subunit),DRSC18693,0.2,0.15,0,0.14
CG7196 (retired record),DRSC01000,0.73,0.1,0.82,0.04
CG7196 (retired record),DRSC03023,-0.15,-1.01,-0.45,0.35
CG13455,DRSC10002,-0.15,-0.02,0.12,-0.49
ddbt (deadbeat),DRSC07869,0.62,-0.02,-0.41,0.48
CG32708,DRSC18411,0.59,0.03,0.4,0.49
Pgi (Phosphoglucose isomerase),DRSC07507,0.41,0.89,-0.56,0.13
CG9154,DRSC03150,-0.03,0.73,-0.08,0.53

No new results follow: an excerpt of the list.
gene,DRSC id,"replicate 1, z-score of dpERK with insulin","replicate 2, z-score of dpERK with insulin","replicate 1, z-score of dpERK under basal conditions","replicate 1, z-score of ERK-YFP with insulin"
CG43367 + asRNA:CR32252,DRSC21715,-0.27,0.24,0.67,1.58
CG14420,DRSC17917,2.5,2.41,0.66,-2.88
TwdlB (TweedleB),DRSC16050,0.52,-1.45,1.28,1.21
CG33060,DRSC09939,1.1,0.71,-0.95,-0.36
s-cup (stanley-cup),DRSC06277,1.27,0.03,-0.08,-1.26
s-cup (stanley-cup),DRSC06278,0.4,0.16,0.14,-0.99
dind (diamond),DRSC16294,0.39,-0.02,0.18,1.08
CAH1 + Adat1,DRSC02009,-0.19,-0.51,0.68,0.83
CG4882,DRSC04495,-0.07,0.3,-0.35,0.78
fws (four way stop),DRSC02969,-0.06,-0.29,1.88,0.28
CG34309,DRSC14838,0.23,0.34,1.02,-0.15
